Source: publication PMC4411306, “Osmosensing and scaffolding functions of the oligomeric four-transmembrane domain osmosensor Sho1” (Nature Communications, 2015)
Results are given in words; binding and its absence hold for the method and conditions named. In cells and extracts the contact can be indirect. For part of these data: A result given as binding can be weak or reduced; the word gives no strength. For part of these data: Tags and fused reporters may be left off the sequences shown. Values belong to the molecule of their own block, whether it stands above or below them.

The chains behind the UniProt entries cited, without tags or fusion partners.
UniProt P40073: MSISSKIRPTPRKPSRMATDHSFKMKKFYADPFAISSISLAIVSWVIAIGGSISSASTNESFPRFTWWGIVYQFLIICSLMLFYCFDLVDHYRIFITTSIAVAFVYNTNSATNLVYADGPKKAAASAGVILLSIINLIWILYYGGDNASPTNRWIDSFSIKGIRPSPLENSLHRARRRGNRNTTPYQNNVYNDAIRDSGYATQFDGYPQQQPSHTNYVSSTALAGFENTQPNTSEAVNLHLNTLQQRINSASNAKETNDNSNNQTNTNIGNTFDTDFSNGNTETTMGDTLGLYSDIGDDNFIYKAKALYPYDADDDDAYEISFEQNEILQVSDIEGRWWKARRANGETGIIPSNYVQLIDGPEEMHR

What was measured:
[1] = target: GST-Sho1 (Saccharomyces cerevisiae) (UniProt P40073); test: co-IP; GST-Sho1 derivative and Opy2-GFP derivative co-expressed (GAL1 promoter) in TM257; lysate in Buffer A with a mild detergent (0.3% Brij-35; digitonin, Brij 97 or Brij L23); GST-Sho1 precipitated with glutathione Sepharose, Opy2-GFP probed with anti-GFP
[2] = target: Hkr1ΔSTR-HA (Saccharomyces cerevisiae); test: co-IP; Hkr1ΔSTR-HA and Opy2-GFP constructs expressed in TM257 or QG158; lysate in Buffer A with 1% digitonin; Hkr1ΔSTR-HA immunoprecipitated, Opy2-GFP detected by immunoblotting
[3] = target: GST-Ste50ΔSB (Saccharomyces cerevisiae); test: co-IP; GST-Ste50 derivative and HA-Ste11ΔC co-expressed (GAL1 promoter) in yeast KY594-1; lysate in Buffer A with 0.2% Triton-X-100; GST-Ste50 precipitated with glutathione Sepharose, HA-Ste11ΔC probed with anti-HA

binding [1]: no binding
Molecule: Opy2-I100D-GFP (from UniProt Q06810)

binding [2]: binds
B1: Opy2-GFP (protein, UniProt Q06810 1-360)
chain: MSSSSKASASSSLSSTATSSTSATRGSDGCVVCDSTASCPVCASGEYCVMTSLTCDKCPSTYCAKQSDSQLSSLSSSSSSSSSSNSNEKTSLIVGFTVGIVGGAMLIALVALYFINKRYWKPKRQKNKALKLEEASQSYGNEEEYFDDEDDDDEDDEDDGGMRKDESHTLFNTSLVPPTLNVPGNRSSASTTRTRASNILPIAYIPGVTSGLSTDKLQSKLRSSSKRQNAAGDIRSHITLGSSILDGLDDEDDEHNQVLNKDADDNLITAIRAKPKLVQIAEEESDKEIQDLDVIEEQTEADDLSHMAKSEASHGNNDEDDDEEGSFILDLEIPESIRESTQGSRTESPFEDKFEIHDER

binding [3]: binds
B2: HA-Ste11ΔC (domain or fragment, UniProt P23561 1-413)
chain: MEQTQTAEGTDLLIGDEKTNDLPFVQLFLEEIGCTQYLDSFIQCNLVTEEEIKYLDKDILIALGVNKIGDRLKILRKSKSFQRDKRIEQVNRLKNLMEKVSSLSTATLSMNSELIPEKHCVIFILNDGSAKKVNVNGCFNADSIKKRLIRRLPHELLATNSNGEVTKMVQDYDVFVLDYTKNVLHLLYDVELVTICHANDRVEKNRLIFVSKDQTPSDKAISTSKKLYLRTLSALSQVGPSSSNLLAQNKGISHNNAEGKLRIDNTEKDRIRQIFNQRPPSEFISTNLAGYFPHTDMKRLQKTMRESFRHSARLSIAQRRPLSAESNNIGDILLKHSNAVDMALLQGLDQTRLSSKLDTTKIPKLAHKRPEDNDAISNQLELLSVESGEEEDHDFFGEDSDIVSLPTKIATPK
